Results published in patent US20130039922A1.
Results are given in words; binding and its absence hold for the method and conditions named. Binding seen in cells or lysates may run through a third protein. Some binding calls cover weakened binding; strength is not graded here.

Protein sequences, listed by entry. Tags and fused reporters are not part of them. Residues count along the entry.
UniProt P41245, residues 108-730: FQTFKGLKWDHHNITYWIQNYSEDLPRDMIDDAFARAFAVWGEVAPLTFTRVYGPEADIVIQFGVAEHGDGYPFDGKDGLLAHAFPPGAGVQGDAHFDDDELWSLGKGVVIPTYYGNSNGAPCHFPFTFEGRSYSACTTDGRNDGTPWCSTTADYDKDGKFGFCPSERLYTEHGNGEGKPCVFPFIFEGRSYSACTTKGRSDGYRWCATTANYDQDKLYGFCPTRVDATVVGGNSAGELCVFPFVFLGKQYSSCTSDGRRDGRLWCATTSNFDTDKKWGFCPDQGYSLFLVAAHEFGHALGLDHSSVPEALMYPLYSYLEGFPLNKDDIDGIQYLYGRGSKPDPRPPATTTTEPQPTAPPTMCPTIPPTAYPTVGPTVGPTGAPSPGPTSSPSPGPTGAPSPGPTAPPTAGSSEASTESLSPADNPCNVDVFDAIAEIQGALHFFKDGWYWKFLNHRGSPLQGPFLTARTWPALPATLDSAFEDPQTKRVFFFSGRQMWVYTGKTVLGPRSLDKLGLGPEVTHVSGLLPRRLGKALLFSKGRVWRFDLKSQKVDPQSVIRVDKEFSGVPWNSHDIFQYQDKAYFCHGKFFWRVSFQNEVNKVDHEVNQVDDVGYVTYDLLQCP
UniProt P33434, residues 110-467: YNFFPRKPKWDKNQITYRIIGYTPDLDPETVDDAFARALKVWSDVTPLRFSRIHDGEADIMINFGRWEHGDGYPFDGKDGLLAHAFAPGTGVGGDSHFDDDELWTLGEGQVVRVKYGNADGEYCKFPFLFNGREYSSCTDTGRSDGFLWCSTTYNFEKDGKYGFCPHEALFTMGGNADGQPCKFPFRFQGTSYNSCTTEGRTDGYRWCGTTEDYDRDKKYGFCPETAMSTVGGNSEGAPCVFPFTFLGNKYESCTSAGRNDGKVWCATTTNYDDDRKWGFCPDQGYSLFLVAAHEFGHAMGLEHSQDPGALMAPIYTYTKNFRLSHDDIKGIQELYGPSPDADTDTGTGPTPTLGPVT

Legend:
[1] = molecular target: native mouse MMP-9 in its activated form (ascitic fluid) (mouse) (UniProt P41245); experiment: co-immunoprecipitation from ascitic fluid, western blot (FIG. 7A)
[2] = molecular target: active MMP-2 fragment (catalytic and fibronectin domain) (mouse) (UniProt P33434); experiment: pull-down with SDS3 on protein A beads, SDS-PAGE, Coomassie (FIG. 7B)
[3] = molecular target: active MMP-2 fragment (catalytic and fibronectin domain) (mouse) (UniProt P33434); experiment: pull-down with SDS3 on protein A Sepharose beads, SDS-PAGE, Coomassie
[4] = molecular target: active MMP-2 fragment (catalytic and fibronectin domain) (mouse) (UniProt P33434); experiment: pull-down with SDS3 on protein A beads, SDS-PAGE, Coomassie staining
[5] = molecular target: native mouse MMP-9 in its activated form (ascitic fluid) (mouse) (UniProt P41245); experiment: co-immunoprecipitation from ascitic fluid on protein G beads, western blot with commercial anti-MMP-9 antibody

Measured: binding

B1: SDS3 (antibody, V domains shown)
VH: VQLQESGGGLVKPGGSLKLSCAASGFAFSTYDMSWIRQTPEKRLEWVATISSGGSYTYYPDSVKGRFTISKDNARNTLYLQMSSLRSGDTALYYCTRFRYDGWYFDVWGQG
VL: DVLITQTPLSLPVSLGDQASISCRSSQSIVHSNGNTFLEWYLQKPGQSPKLLIYKVSNRFSGVPDRFSGSGSGTDFTLKISRVEAEDLGVYYCFQASHVPPTFGGG
binds: all assays above
